Measured values as given in patent publication US10603323B2, “Combination of histamine-3 receptor inverse agonists with acetylcholinesterase inhibitors” (priority 2016, dated 2020).
Values joined by “and” are separate entries in the source; they are usually repeats but may differ in a detail not shown here. Equal entries are not always repeated.

System: extracellular levels of acetylcholine in medial prefrontal cortex
Experiment: Acetylcholine modulation in medial prefrontal cortex (microdialysis)
Assay type: in vivo, male Wistar rats
Conditions: donepezil alone, 1 mg/kg, s.c., mPFC dialysate
Excerpt: Male Wistar rats (240-300 g body weight) were stereotaxically implanted with a microdialysis guide cannula in medial prefrontal cortex (mPFC; AP: +3.2 mm, ML: −0.5 mm, DV: −3.0 mm) under isoflurane anesthesia. Co-ordinates were taken according to atlas for the rat brain (Paxinos and Watson 2004) with reference points taken from bregma and vertical from the skull. The rats were allowed to recover individually for four days in a round bottom Plexiglas bowl with free access to feed and water.
After surgical recovery of 4 days, male Wistar rats were connected to dual quartz lined two-channel liquid swivel (Instech, UK) on a counter balance lever arm, which allowed unrestricted movements of the animal. Sixteen hours before start of the study, a pre-equilibrated microdialysis probe (2 mm dialysis membrane) was inserted into mPFC through the guide cannula. On the day of study, probe was perfused with artificial cerebrospinal fluid (aCSF; NaCl 147 mM, KCl2.7 mM, MgCl2 1 mM, CaCl2. 2H2O 1.2 mM, pH 7.4) at a flow rate of 1.5 μL/min and a stabilization period of 2 h was maintained. Five basal samples were collected at 20 min intervals prior to the treatment of test Compounds (3 or 10 mg/kg, p.o.) or vehicle. […] Dialysate samples were collected for an additional period of 4 h post treatment of test compounds. […]
Acetylcholine concentrations in dialysates were quantified using LC-MS/MS based method. […]

For COc1cc2c(cc1OC)C(=O)C(CC1CCN(Cc3ccccc3)CC1)C2 (stereo not shown) [donepezil, reference compound], the “maximum cortical acetylcholine levels, % of basal levels” value was 933±74 % of basal levels and 1459±146 % of basal levels and 1170±161 % of basal levels.
